# Measured values: paper PMC10163288
# The list shows a part of the results.
# B1: il2ra_site1_3nfp_sap_16_mot_HHH_b1_07204_af2_000000238_0001_41_55_H_._HHH_b1_06952_af2_0001_0000800009_0000001_0_0001_af2pred_0001_af2pred_1_swapped (protein)
# chain: TAAEKLIRLAVEQGSKRVIKKIVEDAEKNLGDPEKAERLVIELLERALNIPPEEAKELVEELLER
# B2: il2ra_site2_2erj_normal_mot_HHH_b1_00261_000000083_0001_43_58_H_._HHH_b2_00580_af2_0001_0000200008_0000001_0 (protein)
# chain: SSSSDEEAEEVSRILVEVLELFENGNEEEARELLEELLEKLKENNNEIAARYVEYALRIFSSSSS
# B3: il2ra_site2_3nfp_normal_mot_HHH_b1_00660_af2_000000090_0001_40_57_H_._HHH_b2_07007_0001_0000300027_0000001_0_1_af2pred_0001_1_af2pred_swapped (protein)
# chain: SSSSDEEEARELLEEAKRLAEEGNPEEARKLLEEASKIAVESNNHELFALITEVLEKVLKLSSSS
# B4: il2ra_site2_2erj_sap_14_mot_HHH_b2_05722_000000033_0001_22_38_H_._HHH_b1_00927_0001_0001900021_0000001_0_0001 (protein)
# chain: SSSSSDRVREVYEIVLRLAREFNLDAEQIVALIERAEELLERGVSEEEIEELLEEQAKRLSSSSS
# B5: il2ra_site1_1z92_sap_16_mot_ems_3hM_2197_000000181_0001_1_19_H_._HHH_b1_04507_af2_0001_0000800028_0000001_0_0001 (protein)
# chain: DEEEAEELLREILKEHGNEEVLERDLERTERLFGDPKEALFALINAALQIHGDPRLKEALELVRK
# B6: il2ra_site2_3nfp_normal_mot_HHH_b2_05281_000000198_0001_39_56_H_._HHH_b1_02402_0001_0000900024_0000001_0 (protein)
# chain: SSSSDEEEIRELIQRAREALEEGDRHRAFFIVAEAAFIAWQNNNEEALRELSQLALEIFERSSSS
# B7: il2ra_site1_3nfp_normal_mot_22aa8d8ad8dce7f663ea8fa348a52261_0001_000000276_0001_17_32_H_._a3b61943b7af24100a309c62926c5c00_0001_0001_0000100005_0000001_0_af2pr … (protein)
# chain: SLEEKFEKVAREVGLPPVDIRAVKRIIEEARERGIPPERIIEALRDLARALRDPDLEEVVELLER
# B8: il2ra_site2_2erj_normal_mot_HHH_b1_08185_000000063_0001_41_55_H_._HHH_b1_07623_af2_0001_0000600036_0000001_0 (protein)
# chain: SSSSSDTVEVAVELAEEAYEQGDRAALELILRYLELSLKDTGDPEVEKAYERVEELLERLSSSSS
# B9: il2ra_site2_2erj_normal_mot_HHH_b1_00941_000000060_0001_45_58_H_._HHH_b2_00695_0001_0000200006_0000001_0_af2pred_0001_af2pred (protein)
# chain: SSSSSSDVEERVKELLEEAEKIRDLKEALEVLQEASRLAAERDDEELLELIDEVLRRLSSSSSSS
# B10: il2ra_site1_2b5i_sap_9_mot_HHH_b1_08157_af2_000000055_0001_42_55_H_._HHH_b2_05719_af2_0001_0000400032_0000001_0_0001 (protein)
# chain: SSSSNEDRFIARVIWHLVARFNLSREDIQELHRLAIELLERGVSPEEIEELLRELAEELGSSSSS
# B11: il2ra_site2_3nfp_sap_18_mot_HHH_b1_03716_000000142_0001_40_56_H_._HHH_b2_01825_0002_0000300055_0000001_1_0001 (protein)
# chain: SSSSSESEEYLRAALELARRAIEEGDREAAERILKMIRLAAEDAKDEEALRLAEELLEEVGSSSS
# B12: il2ra_site1_3nfp_sap_13_mot_HHH_b1_01335_af2_000000258_0001_39_53_H_._dc5ea9c2c6cb1649bd85fc05aca2b482_0001_0001_0000400028_0000001_0_0001_af2pred_0001_af2pred_ … (protein)
# chain: SEVEKLVEEIEKLDPILAELLRIALEKAKKDPEAARRIIKLAEEDAERAGDPEVAELIHEVLKLT
# B13: il2ra_site1_3nfp_normal_mot_891b8491a18eb46c9ad5c1702b87f9cc_0001_000000120_0001_18_33_H_._a977d6a2cfab3d20b8a840e59b1ed461_0001_1_0001_0000200009_0000001_0 (protein)
# chain: DEELERVKELLEELGDPQARALVKFLENAFKRARVPPEYVLKALEEALEKLGNPELVRLLQEAIK
# B14: il2ra_site1_2b5i_sap_21_mot_0921d739bb7547bb6fa23329820ad62a_0001_000000012_0001_54_65_H_._69dbefaddb7cc2bb460f5b2b997c8fad_0001_0001_0000100008_0000001_0_0001 (protein)
# chain: SDEEAIEWAVEHAARWLNVPSVEVEVRNGEVHVEIEGDDHAARALAVFARRLAEVLNVKLEVEVR
# B15: il2ra_site1_3nfp_normal_mot_ems_3hC_921_af2_000000143_0001_22_40_H_._HHH_b2_00024_0001_0000100003_0000001_0 (protein)
# chain: SSSSSSDVLERAARLLDRIIKIKDEEEARELLEEAEELAKEIGDPITEWLVRQLKEHKSSSSSSS
# B16: il2ra_site2_3nfp_normal_mot_ems_3hC_474_af2_000000246_0001_42_60_H_._HHH_b2_06761_0001_0000600070_0000001_0_af2pred_0001_af2pred (protein)
# chain: SSSDESEEIFERAEKELERLLEEGDEEEAQHATLIAASLLDELGDEELARRLAELLARFLDSSSS
# B17: il2ra_site1_1z92_normal_mot_HHH_b1_07828_af2_000000107_0001_18_34_H_._HHH_b1_02447_af2_0001_0000300012_0000001_0 (protein)
# chain: SSSSDLEEAIEILLQAIRRAIEAGNEKAAERFIEFAKEQIEDSGDPELERILRELEELLRSSSSS
# B18: il2ra_site2_3nfp_sap_26_mot_HHH_b2_05281_000000198_0001_39_56_H_._cd2bdebb681eda360e2a82a7dcebc495_0001_1_af2_0001_0000200009_0000001_0_0001 (protein)
# chain: SSSSELEEYVKAAIDLLRRAVEEGDERAVEHLAHLAEATAEDINNPELLEEVQRLVKEFEESSSS
# B19: il2ra_site2_3nfp_sap_35_mot_HHH_b2_01087_000000001_0001_1_15_H_._HHH_b2_01975_0002_0000200022_0000001_0_0001_af2pred_0001_af2pred (protein)
# chain: SSSSSSDLEEEAEELVEEAKEKADEHDRFALRADRIFAELAGDPKLFEEAKELAKKDLSSSSSSS
# B20: il2ra_site1_2b5i_sap_22_mot_HHH_b2_01283_af2_000000044_0001_1_16_H_._HHH_b1_00972_af2_0001_0000500028_0000001_0_0001_af2pred_0001_af2pred (protein)
# chain: SSSSSDTEEAVELFRKANELFRNGNPEEAREVLEQAEEIAEEAGSRSLLRMIRAALELLESSSSS
# B21: il2ra_site2_3nfp_sap_20_mot_HHH_b1_03818_000000217_0001_1_20_H_._HHH_b1_03372_af2_0001_0000400021_0000001_0_0001 (protein)
# chain: DVEELVELAEKARTDPEAAEKLFEEAEEAKKNGDPRLELLIYAVLALAINGVPPEELREFLEERK
# B22: il2ra_site2_3nfp_sap_26_mot_HHH_b2_02437_000000052_0001_42_56_H_._a171aa182591c97700389b7a6f87ba9a_0001_af2_0001_0000200033_0000001_1_0001 (protein)
# chain: SSSSTAERLLRIALESIKLALRDGDEELAERLIEDLKDAIEQNNDEEAREILEELEERVNSSSSS
# B23: il2ra_site1_2b5i_normal_mot_HHH_b1_03013_000000055_0001_1_21_H_._HHH_b1_07693_0001_0000600024_0000001_0_af2pred_dldesign_0_af2pred (protein)
# chain: SSSSSPRLKKIDEAEKLLKEIAEKKDEKAFDEVDDLLSKGIKSKDEKLLEEAIEYAKKILSSSSS
# B24: il2ra_site1_3nfp_normal_mot_HHH_b2_02053_000000240_0001_1_20_H_._HHH_b1_03028_0001_0000300025_0000001_0_af2pred_0001_af2pred_1_swapped (protein)
# chain: SSSSSDIFKEFQELIKEASKITDREELEEVLRQLKEIAEKANSPAAKLLVERLERKAKELSSSSS
# Molecular target: il2ra, P01589
# Experiment: yeast display titration
row,Binder,apparent Kd
1,B1,inactive: no binding seen
2,B2,inactive: no binding seen
3,B3,inactive: no binding seen
4,B4,inactive: no binding seen
5,B5,inactive: no binding seen
6,B6,inactive: no binding seen
7,B7,inactive: no binding seen
8,B8,inactive: no binding seen
9,B9,inactive: no binding seen
10,B10,inactive: no binding seen
11,B11,inactive: no binding seen
12,B12,inactive: no binding seen
13,B13,inactive: no binding seen
14,B14,inactive: no binding seen
15,B15,inactive: no binding seen
16,B16,inactive: no binding seen
17,B17,inactive: no binding seen
18,B18,inactive: no binding seen
19,B19,inactive: no binding seen
20,B20,inactive: no binding seen
21,B21,inactive: no binding seen
22,B22,inactive: no binding seen
23,B23,inactive: no binding seen
24,B24,inactive: no binding seen

# Reprinted at random: two records from the list.
row,Binder,apparent Kd
17,B17,inactive: no binding seen
1,B1,inactive: no binding seen
